Experimental data reported in US20230303491A1, “DONEPEZIL ETHER PALMITATE OR PHARMACEUTICALLY ACCEPTABLE SALT THEREOF” (CHONG KUN DANG PHARMACEUTICAL CORP., priority 2020, published 2023).

Assay: Pharmacokinetic evaluation: donepezil concentration in plasma after intramuscular injection of solution phase compositions
Details: SD rats
Method: The main ingredients of Table 1 above, castor oil, and benzyl benzoate were mixed according to the components and amounts of Table 2 below, and stirred at room temperature for 0.5 to 3 hours to prepare solution phase compositions.
Four male SD rats with an average weight of 300 g were intramuscularly injected with a dose of 4 mg/kg of donepezil in the formulation of donepezil (D) and 40 mg/kg of donepezil each in the DEP, DEM, DEPD, DEHD, and DES formulations, and the concentrations of donepezil in plasma samples of SD rats were analyzed using LC-MS/MS.

In the case of `COc1cc2c(cc1OC)C(=O)C(CC1CCN(Cc3ccccc3)CC1)C2` (centres unmarked) [D, 2-((1-benzylpiperidin-4-yl)methyl)-5,6-dimethoxy-2,3-dihydro-1H-inden-1-one, reference compound], the “time until release of the drug was terminated” value (4 mg/kg donepezil) is reported as ≤ 3 days and the “release of drug immediately after administration” value (D 4 mg/kg, DEP 40 mg/kg as donepezil) is reported as “rapidly released immediately after administration”.
